Results taken from paper doi:10.1101/2022.07.11.499617.
Like-named read-outs stand apart in the source and are kept apart here. No constants are given. Whether binding was seen depends on the method and setting. For some of these results: Binding seen in cells or lysates may run through a third protein. Some results given as binding are weak or reduced against the parent protein; the word gives no strength. Tags and fused reporters may be left off the sequences shown.

How the values were obtained:
[1] = molecular target: T1, PUB30-FLAG (proPUB30::PUB30-FLAG) (Arabidopsis thaliana) (UniProt Q058P4); experiment: co-IP
T1 sequence: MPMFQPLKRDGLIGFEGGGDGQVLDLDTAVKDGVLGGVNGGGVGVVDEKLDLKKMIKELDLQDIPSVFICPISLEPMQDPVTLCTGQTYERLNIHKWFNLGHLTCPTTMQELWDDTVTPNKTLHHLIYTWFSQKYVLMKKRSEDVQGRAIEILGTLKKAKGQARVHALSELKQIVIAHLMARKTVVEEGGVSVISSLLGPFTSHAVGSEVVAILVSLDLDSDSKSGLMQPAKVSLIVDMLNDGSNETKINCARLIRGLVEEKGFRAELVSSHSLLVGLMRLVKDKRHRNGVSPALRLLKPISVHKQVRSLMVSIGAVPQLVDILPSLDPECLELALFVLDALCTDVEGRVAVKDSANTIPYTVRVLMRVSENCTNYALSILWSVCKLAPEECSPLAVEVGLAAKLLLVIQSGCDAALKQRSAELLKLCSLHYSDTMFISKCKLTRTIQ

[2] = molecular target: T2, PUB31-FLAG (proPUB31::PUB31-FLAG) (Arabidopsis thaliana) (UniProt Q9FHN9); experiment: co-IP
T2 sequence: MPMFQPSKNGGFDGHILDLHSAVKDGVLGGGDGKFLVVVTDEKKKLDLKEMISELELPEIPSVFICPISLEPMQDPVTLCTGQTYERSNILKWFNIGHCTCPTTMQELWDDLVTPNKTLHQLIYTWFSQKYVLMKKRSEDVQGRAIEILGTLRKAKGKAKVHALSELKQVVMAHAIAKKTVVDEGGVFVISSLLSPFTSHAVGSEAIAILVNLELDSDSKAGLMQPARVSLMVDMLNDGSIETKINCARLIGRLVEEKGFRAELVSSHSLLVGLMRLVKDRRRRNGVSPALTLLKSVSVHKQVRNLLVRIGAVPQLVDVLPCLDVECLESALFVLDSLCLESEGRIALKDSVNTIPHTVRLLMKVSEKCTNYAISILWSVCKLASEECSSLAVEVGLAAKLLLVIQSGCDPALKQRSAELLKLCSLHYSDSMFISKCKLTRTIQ

[3] = molecular target: T1, PUB30-FLAG (proPUB30::PUB30-FLAG) (Arabidopsis thaliana); experiment: co-IP; remark: listed apart in the source
[4] = molecular target: T2, PUB31-FLAG (proPUB31::PUB31-FLAG) (Arabidopsis thaliana); experiment: co-IP; remark: listed apart in the source
[5] = molecular target: T3, MBP-BAK1_CD (Arabidopsis thaliana) (UniProt Q94F62); experiment: pull-down
T3 sequence: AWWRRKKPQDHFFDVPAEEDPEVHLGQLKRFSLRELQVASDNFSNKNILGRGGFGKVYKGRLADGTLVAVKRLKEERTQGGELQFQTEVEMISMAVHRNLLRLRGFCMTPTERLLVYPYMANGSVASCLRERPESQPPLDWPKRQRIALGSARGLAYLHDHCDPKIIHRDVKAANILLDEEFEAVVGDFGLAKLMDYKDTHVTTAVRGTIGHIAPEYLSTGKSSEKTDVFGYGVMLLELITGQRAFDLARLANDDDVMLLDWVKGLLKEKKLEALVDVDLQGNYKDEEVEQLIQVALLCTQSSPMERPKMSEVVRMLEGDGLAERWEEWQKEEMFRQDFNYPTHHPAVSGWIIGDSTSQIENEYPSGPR

[6] = molecular target: BR-… KINASE1 (BSK1), two-hybrid fusion (Arabidopsis thaliana) (UniProt Q944A7); experiment: two-hybrid
[7] = molecular target: T4, YODA (YDA), two-hybrid fusion (Arabidopsis thaliana) (UniProt Q9CAD5); experiment: two-hybrid
T4 sequence: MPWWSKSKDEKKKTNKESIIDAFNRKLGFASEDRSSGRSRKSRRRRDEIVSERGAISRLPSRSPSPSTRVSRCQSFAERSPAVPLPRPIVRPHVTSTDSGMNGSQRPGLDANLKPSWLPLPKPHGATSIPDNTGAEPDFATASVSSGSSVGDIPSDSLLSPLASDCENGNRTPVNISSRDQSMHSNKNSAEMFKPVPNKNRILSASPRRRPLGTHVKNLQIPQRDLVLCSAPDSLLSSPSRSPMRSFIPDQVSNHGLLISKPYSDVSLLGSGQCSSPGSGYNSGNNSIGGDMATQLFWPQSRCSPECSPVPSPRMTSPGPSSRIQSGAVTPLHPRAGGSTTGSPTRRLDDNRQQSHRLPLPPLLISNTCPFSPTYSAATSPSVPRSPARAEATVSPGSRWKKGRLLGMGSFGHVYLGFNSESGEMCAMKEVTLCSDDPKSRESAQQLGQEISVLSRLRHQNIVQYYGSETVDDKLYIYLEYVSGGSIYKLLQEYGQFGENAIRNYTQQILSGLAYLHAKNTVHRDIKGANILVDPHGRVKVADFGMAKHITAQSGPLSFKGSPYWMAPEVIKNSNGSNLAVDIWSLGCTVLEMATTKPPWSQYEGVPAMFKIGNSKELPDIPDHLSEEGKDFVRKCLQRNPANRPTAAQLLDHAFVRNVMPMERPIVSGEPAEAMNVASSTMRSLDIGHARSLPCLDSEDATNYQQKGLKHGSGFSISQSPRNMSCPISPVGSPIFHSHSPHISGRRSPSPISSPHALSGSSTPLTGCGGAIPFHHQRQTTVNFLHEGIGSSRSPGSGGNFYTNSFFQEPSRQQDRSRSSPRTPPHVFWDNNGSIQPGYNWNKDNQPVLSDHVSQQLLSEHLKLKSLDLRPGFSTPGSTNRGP

[8] = molecular target: BR-… KINASE2 (BSK2), two-hybrid fusion (Arabidopsis thaliana) (UniProt Q9LS26); experiment: two-hybrid

B1: ERECTA-YFP (proERECTA::ERECTA-YFP) (receptor, UniProt Q42371 25-976)
chain: EEGATLLEIKKSFKDVNNVLYDWTTSPSSDYCVWRGVSCENVTFNVVALNLSDLNLDGEISPAIGDLKSLLSIDLRGNRLSGQIPDEIGDCSSLQNLDLSFNELSGDIPFSISKLKQLEQLILKNNQLIGPIPSTLSQIPNLKILDLAQNKLSGEIPRLIYWNEVLQYLGLRGNNLVGNISPDLCQLTGLWYFDVRNNSLTGSIPETIGNCTAFQVLDLSYNQLTGEIPFDIGFLQVATLSLQGNQLSGKIPSVIGLMQALAVLDLSGNLLSGSIPPILGNLTFTEKLYLHSNKLTGSIPPELGNMSKLHYLELNDNHLTGHIPPELGKLTDLFDLNVANNDLEGPIPDHLSSCTNLNSLNVHGNKFSGTIPRAFQKLESMTYLNLSSNNIKGPIPVELSRIGNLDTLDLSNNKINGIIPSSLGDLEHLLKMNLSRNHITGVVPGDFGNLRSIMEIDLSNNDISGPIPEELNQLQNIILLRLENNNLTGNVGSLANCLSLTVLNVSHNNLVGDIPKNNNFSRFSPDSFIGNPGLCGSWLNSPCHDSRRTVRVSISRAAILGIAIGGLVILLMVLIAACRPHNPPPFLDGSLDKPVTYSTPKLVILHMNMALHVYEDIMRMTENLSEKYIIGHGASSTVYKCVLKNCKPVAIKRLYSHNPQSMKQFETELEMLSSIKHRNLVSLQAYSLSHLGSLLFYDYLENGSLWDLLHGPTKKKTLDWDTRLKIAYGAAQGLAYLHHDCSPRIIHRDVKSSNILLDKDLEARLTDFGIAKSLCVSKSHTSTYVMGTIGYIDPEYARTSRLTEKSDVYSYGIVLLELLTRRKAVDDESNLHHLIMSKTGNNEVMEMADPDITSTCKDLGVVKKVFQLALLCTKRQPNDRPTMHQVTRVLGSFMLSEQPPAATDTSATLAGSCYVDEYANLKTPHSVNCSSMSASDAQLFLRFGQVISQNSE
binding [1]: binds
binding [2]: binds
binding [3]: binds weakly
binding [4]: binds weakly

B2: GST-PUB30 (enzyme, UniProt Q058P4 1-448)
chain: T1 sequence
binding [5]: binds

B3: GST-PUB31 (enzyme, UniProt Q9FHN9 1-444)
chain: T2 sequence
binding [5]: binds

B4: BRI1 ASSOCIATED KINASE1 (BAK1), endogenous (receptor, UniProt Q94F62 26-615)
chain: NAEGDALSALKNSLADPNKVLQSWDATLVTPCTWFHVTCNSDNSVTRVDLGNANLSGQLVMQLGQLPNLQYLELYSNNITGTIPEQLGNLTELVSLDLYLNNLSGPIPSTLGRLKKLRFLRLNNNSLSGEIPRSLTAVLTLQVLDLSNNPLTGDIPVNGSFSLFTPISFANTKLTPLPASPPPPISPTPPSPAGSNRITGAIAGGVAAGAALLFAVPAIALAWWRRKKPQDHFFDVPAEEDPEVHLGQLKRFSLRELQVASDNFSNKNILGRGGFGKVYKGRLADGTLVAVKRLKEERTQGGELQFQTEVEMISMAVHRNLLRLRGFCMTPTERLLVYPYMANGSVASCLRERPESQPPLDWPKRQRIALGSARGLAYLHDHCDPKIIHRDVKAANILLDEEFEAVVGDFGLAKLMDYKDTHVTTAVRGTIGHIAPEYLSTGKSSEKTDVFGYGVMLLELITGQRAFDLARLANDDDVMLLDWVKGLLKEKKLEALVDVDLQGNYKDEEVEQLIQVALLCTQSSPMERPKMSEVVRMLEGDGLAERWEEWQKEEMFRQDFNYPTHHPAVSGWIIGDSTSQIENEYPSGPR
binding [1]: binds
binding [2]: binds
binding [3]: binds weakly
binding [4]: binds weakly

B5: PUB30, two-hybrid fusion used against BSK1/2 and YODA (enzyme, UniProt Q058P4 1-448)
chain: T1 sequence
binding [6]: no binding
binding [7]: no binding
binding [8]: no binding
